Results are given in words; binding and its absence hold for the method and conditions named. Where a sequence is shown, tags or fusion partners need not be part of it.
Molecular target: T1, His-GBA3-HA (recombinant epitope-tagged cytosolic β-glycosidase GBA3) (human) (UniProt Q9H227)
T1 sequence: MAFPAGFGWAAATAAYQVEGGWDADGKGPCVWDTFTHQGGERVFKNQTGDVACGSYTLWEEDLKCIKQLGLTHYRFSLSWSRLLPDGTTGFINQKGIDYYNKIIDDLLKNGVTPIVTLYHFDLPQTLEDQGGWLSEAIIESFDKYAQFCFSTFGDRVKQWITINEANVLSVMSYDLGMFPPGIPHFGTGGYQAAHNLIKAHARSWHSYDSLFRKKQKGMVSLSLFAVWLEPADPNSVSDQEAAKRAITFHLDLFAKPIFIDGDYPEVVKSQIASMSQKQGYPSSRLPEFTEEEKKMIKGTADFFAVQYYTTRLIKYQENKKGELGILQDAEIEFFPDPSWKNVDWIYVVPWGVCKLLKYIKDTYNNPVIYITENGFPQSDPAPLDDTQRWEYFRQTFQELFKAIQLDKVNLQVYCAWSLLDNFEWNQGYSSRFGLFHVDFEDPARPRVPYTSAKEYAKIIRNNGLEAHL
Assay: pull-down; purified recombinant proteins mixed overnight at 4 °C (1.5 mg/mL each), precipitated with 20 μL Ni-Sepharose 6 Fast Flow for 1 h at 4 °C (His-tagged protein held), washed three times with PBS, western blotting; both purified

GST alone
binding: no binding
